# Source: patent US8476434B2, “Protein kinase modulators and method of use” (Amgen Inc., priority 2004, dated 2013)
# The chains behind the UniProt entries cited, without tags or fusion partners. Residues count along the entry.
# UniProt Q96GD4, whole entry: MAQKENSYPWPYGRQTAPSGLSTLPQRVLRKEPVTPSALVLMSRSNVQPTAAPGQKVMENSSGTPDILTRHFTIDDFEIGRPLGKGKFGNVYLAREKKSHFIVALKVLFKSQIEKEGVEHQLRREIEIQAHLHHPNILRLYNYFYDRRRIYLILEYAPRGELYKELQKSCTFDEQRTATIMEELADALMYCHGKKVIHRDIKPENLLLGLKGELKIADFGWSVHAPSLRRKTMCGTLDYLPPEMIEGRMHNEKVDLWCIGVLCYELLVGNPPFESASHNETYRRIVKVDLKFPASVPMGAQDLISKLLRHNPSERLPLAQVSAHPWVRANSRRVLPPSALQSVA
# UniProt Q02763, 23-1124: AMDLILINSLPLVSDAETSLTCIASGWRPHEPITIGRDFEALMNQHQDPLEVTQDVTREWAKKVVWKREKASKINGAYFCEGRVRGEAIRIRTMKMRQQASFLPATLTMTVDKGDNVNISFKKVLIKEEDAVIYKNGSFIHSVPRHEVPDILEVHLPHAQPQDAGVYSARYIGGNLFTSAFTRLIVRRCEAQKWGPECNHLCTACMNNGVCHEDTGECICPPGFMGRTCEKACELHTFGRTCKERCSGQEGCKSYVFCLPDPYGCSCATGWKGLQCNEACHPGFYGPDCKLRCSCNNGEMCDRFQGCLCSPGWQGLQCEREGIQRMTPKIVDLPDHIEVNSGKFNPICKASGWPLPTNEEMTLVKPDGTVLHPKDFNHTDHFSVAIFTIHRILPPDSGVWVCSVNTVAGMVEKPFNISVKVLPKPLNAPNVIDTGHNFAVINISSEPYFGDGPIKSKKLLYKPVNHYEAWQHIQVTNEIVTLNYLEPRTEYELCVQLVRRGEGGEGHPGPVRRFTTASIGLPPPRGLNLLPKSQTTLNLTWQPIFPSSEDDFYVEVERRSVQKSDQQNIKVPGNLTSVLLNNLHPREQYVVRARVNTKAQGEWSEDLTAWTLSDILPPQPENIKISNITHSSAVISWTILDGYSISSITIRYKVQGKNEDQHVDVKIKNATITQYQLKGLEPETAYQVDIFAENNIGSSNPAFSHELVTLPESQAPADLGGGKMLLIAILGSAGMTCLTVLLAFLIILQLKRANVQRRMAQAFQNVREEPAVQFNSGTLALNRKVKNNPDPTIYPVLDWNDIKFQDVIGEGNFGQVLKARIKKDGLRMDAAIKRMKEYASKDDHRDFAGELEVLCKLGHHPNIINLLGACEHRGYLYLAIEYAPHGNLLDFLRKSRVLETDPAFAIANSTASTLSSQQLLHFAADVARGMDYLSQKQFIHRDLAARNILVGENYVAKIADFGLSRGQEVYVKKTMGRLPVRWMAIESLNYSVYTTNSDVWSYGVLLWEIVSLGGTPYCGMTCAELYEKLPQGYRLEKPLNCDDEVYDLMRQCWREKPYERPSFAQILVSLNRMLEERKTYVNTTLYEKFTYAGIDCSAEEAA
# Some entries share one result that the patent states for a list of compounds.
# Tests used:
# Format in all cases: biochemical
# AuroraB FL His = biological target: T1, AuroraB FL His (Homo sapiens, UniProt Q96GD4); test: AuroraB Homogeneous Time Resolved Fluorescent (HTRF) kinase assay; conditions: read-out: activity in the Aurora kinase B HTRF assay
# T1 construct: AuroraB FL His; His
# Tie-2 kinase enzyme = Tie-2 kinase enzyme (Homo sapiens, UniProt Q02763); test: Tie-2 Homogenous Time Resolved Fluorescent (HTRF) kinase assay; conditions: read-out: IC50's for the inhibition of Tie-2 as measured by the HTRF assay
# AuroraA-TPX2 KD GST = biological target: T2, AuroraA-TPX2 KD GST (Homo sapiens, UniProt O14965); test: AuroraA-TPX2 Homogeneous Time Resolved Fluorescent (HTRF) kinase assay; conditions: read-out: activity in the Aurora kinase A HTRF assay
# T2 construct: AuroraA-TPX2 KD GST; GST
# T2 sequence (O14965 133-383 limits assumed): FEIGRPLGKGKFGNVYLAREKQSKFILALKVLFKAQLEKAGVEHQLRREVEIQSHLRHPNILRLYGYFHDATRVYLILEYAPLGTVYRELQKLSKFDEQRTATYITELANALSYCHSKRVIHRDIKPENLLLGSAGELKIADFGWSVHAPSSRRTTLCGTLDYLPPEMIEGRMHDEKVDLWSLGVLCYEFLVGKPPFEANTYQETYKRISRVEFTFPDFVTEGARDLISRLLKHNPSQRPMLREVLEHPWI
# T2 sequence (Q9ULW0 1-43 partner limits assumed): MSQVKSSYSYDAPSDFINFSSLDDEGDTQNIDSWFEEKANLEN
Compound,IC50 (AuroraB FL His),IC50 (Tie-2 kinase enzyme),IC50 (AuroraA-TPX2 KD GST)
"O=C(Nc1ccc(Oc2ncccc2-c2ccnc(Nc3ccccc3)n2)cc1)c1cccc(C(F)(F)F)c1 [Example 1080, N-(4-((3-(2-(phenylamino)-4-pyrimidinyl)-2-pyridinyl)oxy)phenyl)-3-(trifluoromethyl)benz-amide]",< 10 µM,< 5 µM,< 10 µM
"CC(=O)Nc1ccc(Oc2ncccc2-c2ccnc(Nc3ccc(N4CCN(C)CC4)cc3)n2)c(C)c1 [Example 1081, N-(3-methyl-4-((3-(2-((4-(4-methyl-1-piperazinyl)phenyl)amino)-4-pyrimidinyl)-2-pyridinyl)oxy)phenyl)acet-amide]",< 10 µM,< 5 µM,< 10 µM
"CNc1nccc(-c2cccnc2Oc2ccc(NC(=O)Nc3ccc(C)cc3)cc2)n1 [Example 1082, N-(4-((3-(2-(methylamino)-4-pyrimidinyl)-2-pyridinyl)oxy)phenyl)-N′-(4-methylphenyl)urea]",< 10 µM,< 5 µM,< 10 µM
"CNc1nccc(-c2cccnc2Oc2ccc(NC(=O)Nc3ccc(C)cc3)cc2C)n1 [Example 1083, N-(3-methyl-4-((3-(2-(methylamino)-4-pyrimidinyl)-2-pyridinyl)oxy)phenyl)-N′-(4-methylphenyl)urea]",< 10 µM,< 5 µM,< 10 µM
"CNc1nccc(-c2cccnc2Oc2ccc(NC(=O)Nc3ccc(C)cc3)c(C)c2)n1 [Example 1084, N-(2-methyl-4-((3-(2-(methylamino)-4-pyrimidinyl)-2-pyridinyl)oxy)phenyl)-N′-(4-methylphenyl)urea]",< 10 µM,< 5 µM,< 10 µM
"CNc1nccc(-c2cccnc2Oc2ccc(NC(=O)Nc3ccc(C)cc3)c(C)c2C)n1 [Example 1085, N-(2,3-dimethyl-4-((3-(2-(methylamino)-4-pyrimidinyl)-2-pyridinyl)oxy)phenyl)-N′-(4-methylphenyl)urea]",< 10 µM,< 5 µM,< 10 µM
"CN1CCN(c2ccc(Nc3nccc(-c4cccnc4Sc4ccc(NC(=O)c5cccc(C(F)(F)F)c5)cc4)n3)cc2)CC1 [Example 1086, N-(4-((3-(2-((4-(4-methyl-1-piperazinyl)phenyl)amino)-4-pyrimidinyl)-2-pyridinyl)sulfanyl)phenyl)-3-(trifluorometh-yl)benzamide]",< 10 µM,< 5 µM,< 10 µM
"CNc1nccc(-c2cccnc2Oc2ccc(NC(=O)NCc3ccccc3)c3ccccc23)n1 [Example 1090, N-(4-((3-(2-(methylamino)-4-pyrimidinyl)-2-pyridinyl)oxy)-1-naphthalenyl)-N′-(phenylmethyl)urea]",< 10 µM,< 5 µM,< 10 µM
"CNc1nccc(-c2cccnc2Oc2ccc(NC(=O)NCc3cccc(C)c3)cc2)n1 [Example 1091, N-(4-((3-(2-(methylamino)-4-pyrimidinyl)-2-pyridinyl)oxy)phenyl)-N′-((3-methylphenyl)methyl)urea]",< 10 µM,< 5 µM,< 10 µM
"CNc1nccc(-c2cccnc2Oc2ccc(NC(=O)NCc3ccccc3C)cc2C)n1 [Example 1092, N-(3-methyl-4-((3-(2-(methylamino)-4-pyrimidinyl)-2-pyridinyl)oxy)phenyl)-N′-((2-methylphenyl)methyl)urea]",< 10 µM,< 5 µM,< 10 µM
"CNc1nccc(-c2cccnc2Oc2ccc(NC(=O)NCc3ccc(C)cc3)cc2C)n1 [Example 1095, N-(3-methyl-4-((3-(2-(methylamino)-4-pyrimidinyl)-2-pyridinyl)oxy)phenyl)-N′-((4-methylphenyl)methyl)urea]",< 10 µM,< 5 µM,< 10 µM
"O=C(Nc1ccc(Cl)cc1)Nc1ccc(Oc2ncccc2-c2ccnc(NCCCN3CCOCC3)n2)cc1 [Example 1096, N-(4-chlorophenyl)-N′-(4-((3-(2-((3-(4-morpholinyl)propyl)ami-no)-4-pyrimidinyl)-2-pyridinyl)oxy)phen-yl)urea]",< 10 µM,< 5 µM,< 10 µM
"CNc1nccc(-c2cccnc2Oc2ccc(NC(=O)Nc3ccc4c(c3)N(C(C)=O)CC4)cc2C)n1 [Example 1097, 1-(1-acetylindolin-6-yl)-3-(3-methyl-4-(3-(2-(methylamino)pyrimidin-4-yl)pyridin-2-yloxy)phenyl)urea]",< 10 µM,< 5 µM,< 10 µM
"CNc1nccc(-c2cccnc2Oc2ccc(NC(=O)Nc3ccc(C(C)(C)C)cc3)cc2C)n1 [Example 1098, 1-(4-tert-butylphenyl)-3-(3-methyl-4-(3-(2-(methylamino)pyrimidin-4-yl)pyridin-2-yloxy)phenyl)urea]",< 10 µM,< 5 µM,< 10 µM
"CNc1nccc(-c2cccnc2Oc2ccc(NC(=O)Nc3ccc(C(C)C)cc3)cc2C)n1 [Example 1099, 1-(4-isopropylphenyl)-3-(3-methyl-4-(3-(2-(methylamino)pyrimidin-4-yl)pyridin-2-yloxy)phenyl)urea]",< 10 µM,< 5 µM,< 10 µM
"CNc1nccc(-c2cccnc2Oc2ccc(NC(=O)Nc3ccc4c(c3)CCC4)c3ccccc23)n1 [Example 1100, 1-(2,3-dihydro-1H-inden-5-yl)-3-(4-(3-(2-(methylamino)pyrimidin-4-yl)pyridin-2-yloxy)naphthalen-1-yl)urea]",< 10 µM,< 5 µM,< 10 µM
"O=C(Nc1ccc(Oc2ncccc2-c2ccnc(NCCCN3CCOCC3)n2)cc1)Nc1ccc2c(c1)CCC2 [Example 1101, 1-(2,3-dihydro-1H-inden-5-yl)-3-(4-(3-(2-(3-morpholinopropylamino)pyrimidin-4-yl)pyridin-2-yloxy)phenyl)urea]",< 10 µM,< 5 µM,< 10 µM
"Cc1ccc(NC(=O)Nc2ccc(Oc3ncccc3-c3ccnc(NCCCN4CCOCC4)n3)cc2)cc1F [Example 1102, 1-(3-fluoro-4-methylphenyl)-3-(4-(3-(2-(3-morpholinopropylamino)pyrimidin-4-yl)pyridin-2-yloxy)phenyl)urea]",< 10 µM,< 5 µM,< 10 µM
"CNc1ncnc(-c2cccnc2Oc2ccc(NC(=O)Nc3ccccc3)c3ccccc23)n1 [Example 1103, 1-(4-(3-(4-(methylamino)-1,3,5-triazin-2-yl)pyridin-2-yloxy)naphthalen-1-yl)-3-phenylurea]",< 10 µM,< 5 µM,< 10 µM
"Cc1cc(NC(=O)Nc2ccccc2)ccc1Oc1ncccc1-c1ccnc(Nc2ccc(N3CCN(C)CC3)cc2)n1 [Example 1104, 1-(3-methyl-4-(3-(2-(4-(4-methylpiperazin-1-yl)phenylamino)pyrimidin-4-yl)pyridin-2-yloxy)phenyl)-3-phenyl-urea]",< 10 µM,< 5 µM,< 10 µM
"Cc1ccc(CNC(=O)Nc2ccc(Oc3ncccc3-c3ccnc(Nc4ccc(N5CCN(C)CC5)cc4)n3)c(C)c2)cc1 [Example 1105, 1-(3-methyl-4-(3-(2-(4-(4-methylpiperazin-1-yl)phenylamino)pyrimidin-4-yl)pyridin-2-yloxy)phenyl)-3-(4-methylbenzyl)urea]",< 10 µM,< 5 µM,< 10 µM
"Cc1cc(NC(=O)c2cccc(-c3cccs3)c2)ccc1Oc1ncccc1-c1ccnc(Nc2ccc(N3CCN(C)CC3)cc2)n1 [Example 1106, N-(3-methyl-4-(3-(2-(4-(4-methylpiperazin-1-yl)phenylamino)pyrimidin-4-yl)pyridin-2-yloxy)phenyl)-3-(thiophen-2-yl)benzamide]",< 10 µM,< 5 µM,< 10 µM
"CNc1ncnc(-c2cccnc2Oc2ccc(NC(=O)Nc3cc(C(F)(F)F)ccc3CN3CCN(C)CC3)c3ccccc23)n1 [Example 1107, 1-(4-(3-(4-(methylamino)-1,3,5-triazin-2-yl)pyridin-2-yloxy)naphthalen-1-yl)-3-(2-((4-methylpiperazin-1-yl)methyl)-5-(trifluoromethyl)phen-yl)urea]",< 10 µM,< 5 µM,< 10 µM
"Cc1cc(NC(=O)NC(C)(C)C)ccc1Oc1ncccc1-c1ccnc(Nc2ccc(N3CCN(C)CC3)cc2)n1 [Example 1108, N-(1,1-dimethylethyl)-N′-(3-methyl-4-((3-(2-((4-(4-methyl-1-piperazinyl)phenyl)amino)-4-pyrimidinyl)-2-pyridinyl)oxy)phenyl)urea]",< 10 µM,< 5 µM,< 10 µM
"CNc1ncnc(-c2cccnc2Oc2ccc(NC(=O)Nc3cc(C(F)(F)F)ccc3Cn3ccnc3)c3ccccc23)n1 [Example 1110, N-(2-(1H-imidazol-1-ylmethyl)-5-(trifluoromethyl)phenyl)-N′-(4-((3-(4-(methylamino)-1,3,5-triazin-2-yl)-2-pyridinyl)oxy)-1-naphthalenyl)urea]",< 10 µM,< 5 µM,< 10 µM
"Cc1cc(NC(=O)C2CC2)ccc1Oc1ncccc1-c1ccnc(Nc2ccc(N3CCN(C)CC3)cc2)n1 [Example 1111, N-(3-methyl-4-((3-(2-((4-(4-methyl-1-piperazinyl)phenyl)amino)-4-pyrimidinyl)-2-pyridinyl)oxy)phenyl)cyclo-propanecarboxamide]",< 10 µM,< 5 µM,< 10 µM
